Patent US20170304281A1, “METHODS OF USING POTASSIUM CHANNEL INHIBITORS (BLOCKERS) FOR FLUID RESUSCITATION” (Loyola University of Chicago, priority 2016, published 2017)
For at least one compound, name, drawing or mass did not settle the structure.

System: normal rats
Experiment: Effect of intravenous bolus doses on blood pressure in normal anesthetized rats (sham, no hemorrhage)
Type: in vivo, rat
Conditions: retigabine i.v. 0.1, 0.5, 1, 3, 6, 12 mg/kg increasing dosages; normal rats n=3
Description: Initial phases of the investigation entailed the administration of linopirdine to anesthetized male Sprague-Dawley rats to determine its effect on blood pressure. Hemodynamics and fluid requirements were continuously monitored.
FIG. 1 contains a plot representing the effect of linopirdine on blood pressure in normal rats (sham—no hemorrhage, n=3) that received five increasing intravenous (i.v.) bolus doses of linopirdine (0.1-6 mg per kg of body weight) in 0.5 mL normal saline (NS) at fifteen minute intervals. […] Data are mean±SD.
FIG. 2 contains a plot representing the effect of the Kv7 channel activator retigabine on blood pressure when administered to normal rats (sham—no hemorrhage, n=3) by intravenous injection in increasing dosages of 0.1 mg/kg, 0.5 mg/kg, 1 mg/kg, 3 mg/kg, 6 mg/kg, and 12 mg/kg in 0.5 mL normal saline. […] Data are mean±SD.

SMILES: CCOC(=O)Nc1ccc(NCc2ccc(F)cc2)cc1N [retigabine]
- effect on blood pressure: dose-dependently reduced blood pressure
